# In all, about 320,000 compounds went through this assay and about 620 (0.19%) were called active. The shares of active, inactive and inconclusive entries below differ from those in the screen. Rule as the data show it: active = activation above about 80%; inconclusive = between about 30% and that limit; inactive = weaker than that.
# Protein sequences, listed by entry. Tags and fused reporters are not part of them.
# UniProt Q8NER1, whole entry, looked up: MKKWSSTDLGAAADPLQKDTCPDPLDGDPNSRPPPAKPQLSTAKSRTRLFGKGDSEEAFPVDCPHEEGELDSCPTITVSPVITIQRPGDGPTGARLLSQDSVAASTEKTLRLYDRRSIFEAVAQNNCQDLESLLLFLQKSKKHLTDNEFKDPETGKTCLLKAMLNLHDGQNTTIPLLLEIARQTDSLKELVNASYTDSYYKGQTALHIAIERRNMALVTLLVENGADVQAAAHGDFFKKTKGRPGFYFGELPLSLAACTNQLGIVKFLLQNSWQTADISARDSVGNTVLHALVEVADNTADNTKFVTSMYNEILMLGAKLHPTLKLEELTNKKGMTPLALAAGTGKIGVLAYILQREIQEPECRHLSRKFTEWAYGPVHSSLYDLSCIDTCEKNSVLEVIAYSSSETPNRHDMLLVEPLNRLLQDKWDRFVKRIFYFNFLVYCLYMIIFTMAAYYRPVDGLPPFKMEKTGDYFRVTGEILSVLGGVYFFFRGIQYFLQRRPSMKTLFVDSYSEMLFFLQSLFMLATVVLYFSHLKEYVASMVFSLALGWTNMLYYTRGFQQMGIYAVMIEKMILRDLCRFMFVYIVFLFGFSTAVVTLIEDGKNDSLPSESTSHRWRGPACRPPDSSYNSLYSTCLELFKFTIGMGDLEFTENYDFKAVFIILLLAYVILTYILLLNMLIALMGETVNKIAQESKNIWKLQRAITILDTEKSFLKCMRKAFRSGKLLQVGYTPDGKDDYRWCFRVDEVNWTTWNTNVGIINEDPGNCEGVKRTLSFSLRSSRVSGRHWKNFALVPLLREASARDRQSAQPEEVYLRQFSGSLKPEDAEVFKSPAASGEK
# Target: Transient receptor potential cation channel subfamily V member 1 (Homo sapiens) (UniProt Q8NER1)
# Experiment: HTS Assay for Compounds that Act as Agonists of the Vanilloid Receptor 1; also: 0% is about no effect
# Details: TRPV1-expressing cells, Fluo-8 calcium influx, agonist mode; at 8.33 µM, active compounds read high
# Method in brief: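 Cells expressing TRPV1 were dye-loaded with Fluo-8 and read kinetically: 10 s baseline, 3 min after compound (agonist portion), then 2 min after EC20 capsaicin (allosteric enhancer portion). Calcium-bound dye fluorescence at 480/520 nm.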
row,Structure (SMILES),activation
1,O=C(CSc1nnc2ccccn12)c1ccc2c(c1)OCCO2,inactive: 0.0718%
2,Cc1ccc(Cl)c(Cn2cnc3c(cnn3C(C)(C)C)c2=O)c1F,inconclusive: 35.9%
3,CCO[C@@H]1OC(C(=O)N2CCCCCCC2)=C[C@H](c2ccc(C(F)(F)F)cc2)[C@H]1CCCO,inconclusive: 38%
4,O=C(C1=C[C@@H](c2ccccc2)C[C@@H](OCCCCO)O1)N1CCN(Cc2ccc3c(c2)OCO3)CC1,inconclusive: 45.7%
5,NC(=O)c1oc2ccccc2c1NC(=O)c1nc2ccccc2s1,inactive: -0.008%
6,OCCC1CN(Cc2ccc(F)cc2)CCN1CCCc1ccccc1 (stereo not given),inactive: 1.85%
7,Cc1ccccc1CNC(=O)c1cc(COc2ccc(F)cc2F)on1,inconclusive: 32.9%
8,COc1ccc(/C=N/NC(=O)c2ccc(COCC(F)(F)C(F)F)cc2)cc1,inconclusive: 54.8%
9,O=C(N/N=C/c1cccc(F)c1)c1csc2c1CCCC2,inconclusive: 55.1%
10,CN(C(=O)c1ccc2c(c1)OCO2)C1(C(=O)NC2CCCCC2)CCCCC1,inconclusive: 45.6%
11,Cc1cc(C)c(C(=O)N2CCCC(C(=O)c3cc(F)ccc3F)C2)o1 (stereo not given),inconclusive: 34.7%
12,CC(=O)c1ccc(-c2ccc(C(=O)NCC(c3ccc(F)cc3)N3CCOCC3)o2)cc1 (stereo not given),inactive: 0.289%
13,CC(C)CC(=O)NC(=S)Nc1ccc(S(=O)(=O)NC(C)(C)C)cc1,inactive: -8.54%
14,COc1ccc(NC(=O)CCN2CCN(c3ccccc3F)CC2)c(OC)c1,inconclusive: 32.3%
15,Cc1ccc(-c2nnnn2-c2ccc(C)cc2)cc1,inconclusive: 34.8%
16,O=C(NCc1ccco1)C1CC(c2cc(C(F)(F)F)cc(C(F)(F)F)c2)=NO1 (stereo not given),inconclusive: 43.4%
17,CC1CCN(CC(=O)Nc2ccc3c(c2)OCO3)CC1,inactive: 9.73%
18,Cc1nn(C)c(C)c1CN(Cc1nc(CCC(C)C)no1)C(C)C,inactive: 13.6%
19,CC(C)CCN(C(=O)c1csnn1)C(C(=O)NC1CCCC1)c1ccc(F)cc1 (stereo not given),inconclusive: 36.4%
20,CS(=O)(=O)N1CCN(c2nnc(-c3ccccc3)c3ccccc23)CC1,inactive: 1.71%
21,CCOc1ccc(NC(=O)NCCN2CCN(c3ccccc3F)CC2)cc1,inactive: 8.62%
22,O=C(Cc1cccs1)Nc1nc(-c2ccc(F)c(F)c2)cs1,inconclusive: 72.5%
23,FC(F)(F)c1ccc(-c2nnc(-c3cccnc3)o2)cc1,inconclusive: 36.9%
24,COc1ccc(CNC(=O)CCC(=O)N2CC(C)Oc3ccccc32)cc1 (stereo not given),inactive: 5.29%
25,COCCCN=Cc1c(-c2ccccc2)[nH]n(-c2nc3ccccc3s2)c1=O,inconclusive: 41.6%

# An excerpt from above in order of length of the SMILES, ascending:
row,Structure (SMILES),activation
18,Cc1nn(C)c(C)c1CN(Cc1nc(CCC(C)C)no1)C(C)C,inactive: 13.6%
2,Cc1ccc(Cl)c(Cn2cnc3c(cnn3C(C)(C)C)c2=O)c1F,inconclusive: 35.9%
14,COc1ccc(NC(=O)CCN2CCN(c3ccccc3F)CC2)c(OC)c1,inconclusive: 32.3%
13,CC(C)CC(=O)NC(=S)Nc1ccc(S(=O)(=O)NC(C)(C)C)cc1,inactive: -8.54%
19,CC(C)CCN(C(=O)c1csnn1)C(C(=O)NC1CCCC1)c1ccc(F)cc1 (stereo not given),inconclusive: 36.4%
4,O=C(C1=C[C@@H](c2ccccc2)C[C@@H](OCCCCO)O1)N1CCN(Cc2ccc3c(c2)OCO3)CC1,inconclusive: 45.7%

# — PubChem BioAssay AID540275 (National Center for Advancing Translational Sciences (NCATS), 2011)
